PMC2990700

Target: HA-tagged murine eIF3f catalytic mutant (meIF3f Mut) (mouse) (UniProt Q9DCH4)
Experiment: co-IP; HEK293T cotransfected; lysis and IP in 50 mM Tris-HCl pH 7.9, 400 mM NaCl, 5 mM MgCl2, 1% Triton X-100; eIF3f immunoprecipitated with anti-HA or anti-Flag; Western blot

B1: VSV-tagged Deltex1 (VSV-DTX) (protein, UniProt Q86Y01 1-620)
chain: MSRPGHGGLMPVNGLGFPPQNVARVVVWEWLNEHSRWRPYTATVCHHIENVLKEDARGSVVLGQVDAQLVPYIIDLQSMHQFRQDTGTMRPVRRNFYDPSSAPGKGIVWEWENDGGAWTAYDMDICITIQNAYEKQHPWLDLSSLGFCYLIYFNSMSQMNRQTRRRRRLRRRLDLAYPLTVGSIPKSQSWPVGASSGQPCSCQQCLLVNSTRAASNAILASQRRKAPPAPPLPPPPPPGGPPGALAVRPSATFTGAALWAAPAAGPAEPAPPPGAPPRSPGAPGGARTPGQNNLNRPGPQRTTSVSARASIPPGVPALPVKNLNGTGPVHPALAGMTGILLCAAGLPVCLTRAPKPILHPPPVSKSDVKPVPGVPGVCRKTKKKHLKKSKNPEDVVRRYMQKVKNPPDEDCTICMERLVTASGYEGVLRHKGVRPELVGRLGRCGHMYHLLCLVAMYSNGNKDGSLQCPTCKAIYGEKTGTQPPGKMEFHLIPHSLPGFPDTQTIRIVYDIPTGIQGPEHPNPGKKFTARGFPRHCYLPNNEKGRKVLRLLITAWERRLIFTIGTSNTTGESDTVVWNEIHHKTEFGSNLTGHGYPDASYLDNVLAELTAQGVSEAAAKA
**Q.** With B1 as the binder, how does the binding read?
**A.** binds

Results are given in words; binding and its absence hold for the method and conditions named. In cells and extracts the contact can be indirect. Binding can be weak; no strength is given. Sequences can lack the tags named with a protein.
